PMC9818352
No constants are given. Whether binding was seen depends on the method and setting. Binding seen in cells or lysates may run through a third protein. These calls come from enrichment with a bait or labelling near it, and not all partners need be listed. Each block holds one molecule with its values, some of them ahead of it.

Sequences of proteins named here, by UniProt entry; tags and fusion partners are left off. Residues count along the entry.
UniProt Q13751, residues 18-1172: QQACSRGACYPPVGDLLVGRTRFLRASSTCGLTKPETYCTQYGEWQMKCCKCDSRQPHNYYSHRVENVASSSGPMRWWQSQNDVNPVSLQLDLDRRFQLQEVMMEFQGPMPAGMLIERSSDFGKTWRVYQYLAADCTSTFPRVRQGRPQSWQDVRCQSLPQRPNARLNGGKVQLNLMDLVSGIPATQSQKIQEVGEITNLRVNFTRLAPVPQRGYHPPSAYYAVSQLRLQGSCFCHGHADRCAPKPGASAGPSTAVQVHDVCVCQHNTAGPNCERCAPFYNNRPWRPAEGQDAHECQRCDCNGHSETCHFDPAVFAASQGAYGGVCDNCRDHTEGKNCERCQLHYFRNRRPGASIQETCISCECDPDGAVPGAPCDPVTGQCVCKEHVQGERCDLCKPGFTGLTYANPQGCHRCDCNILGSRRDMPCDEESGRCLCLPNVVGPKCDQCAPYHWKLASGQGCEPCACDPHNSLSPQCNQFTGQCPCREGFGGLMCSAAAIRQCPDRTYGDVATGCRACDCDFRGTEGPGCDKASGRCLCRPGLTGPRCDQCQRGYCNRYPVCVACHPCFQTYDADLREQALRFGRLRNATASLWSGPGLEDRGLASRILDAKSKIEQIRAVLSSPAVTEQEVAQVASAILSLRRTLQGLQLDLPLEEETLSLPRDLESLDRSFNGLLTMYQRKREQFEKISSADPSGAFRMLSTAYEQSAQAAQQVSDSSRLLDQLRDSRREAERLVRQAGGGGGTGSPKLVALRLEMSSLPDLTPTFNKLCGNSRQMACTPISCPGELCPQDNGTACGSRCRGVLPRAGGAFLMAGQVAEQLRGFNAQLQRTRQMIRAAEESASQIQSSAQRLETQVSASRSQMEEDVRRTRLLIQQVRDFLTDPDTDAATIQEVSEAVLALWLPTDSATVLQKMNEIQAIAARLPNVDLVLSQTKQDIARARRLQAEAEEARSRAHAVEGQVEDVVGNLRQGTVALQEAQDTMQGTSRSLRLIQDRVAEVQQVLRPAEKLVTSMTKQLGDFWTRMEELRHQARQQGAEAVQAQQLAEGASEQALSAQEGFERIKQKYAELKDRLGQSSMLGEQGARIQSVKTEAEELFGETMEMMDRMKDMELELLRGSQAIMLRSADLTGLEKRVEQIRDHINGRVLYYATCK
UniProt Q04695: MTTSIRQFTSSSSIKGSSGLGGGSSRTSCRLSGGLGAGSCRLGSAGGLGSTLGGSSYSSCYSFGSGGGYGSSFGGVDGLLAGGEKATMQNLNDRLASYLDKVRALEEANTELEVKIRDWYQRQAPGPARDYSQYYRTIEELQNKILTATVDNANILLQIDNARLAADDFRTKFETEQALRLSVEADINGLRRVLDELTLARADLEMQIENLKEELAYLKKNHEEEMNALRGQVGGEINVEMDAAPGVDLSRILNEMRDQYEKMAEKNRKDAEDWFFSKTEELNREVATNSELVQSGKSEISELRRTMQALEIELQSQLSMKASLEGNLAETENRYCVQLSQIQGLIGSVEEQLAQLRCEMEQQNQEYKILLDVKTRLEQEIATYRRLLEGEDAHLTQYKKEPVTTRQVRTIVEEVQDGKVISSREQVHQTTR

Target: LAMB3 over-expressed from a plasmid containing full-length LAMB3 cDNA (pLAMB3), Flag-tagged (human) (UniProt Q13751)
Assay: affinity purification with mass spectrometry; PANC-1 cells transfected with pLAMB3 or control plasmid pNC; anti-FLAG immunoprecipitate, gel pieces digested, LC-MS (Q Exactive, PEAKS Studio 8.5); proteins found only in the pLAMB3 group taken as hits

binding: binds
Molecule: KRT17, endogenous in PANC-1 cells (from UniProt Q04695 1-432)

binding: binds
B1: LAMC2, endogenous in PDAC cell lines (protein, UniProt Q13753 22-1193)
chain: TSRREVCDCNGKSRQCIFDRELHRQTGNGFRCLNCNDNTDGIHCEKCKNGFYRHRERDRCLPCNCNSKGSLSARCDNSGRCSCKPGVTGARCDRCLPGFHMLTDAGCTQDQRLLDSKCDCDPAGIAGPCDAGRCVCKPAVTGERCDRCRSGYYNLDGGNPEGCTQCFCYGHSASCRSSAEYSVHKITSTFHQDVDGWKAVQRNGSPAKLQWSQRHQDVFSSAQRLDPVYFVAPAKFLGNQQVSYGQSLSFDYRVDRGGRHPSAHDVILEGAGLRITAPLMPLGKTLPCGLTKTYTFRLNEHPSNNWSPQLSYFEYRRLLRNLTALRIRATYGEYSTGYIDNVTLISARPVSGAPAPWVEQCICPVGYKGQFCQDCASGYKRDSARLGPFGTCIPCNCQGGGACDPDTGDCYSGDENPDIECADCPIGFYNDPHDPRSCKPCPCHNGFSCSVMPETEEVVCNNCPPGVTGARCELCADGYFGDPFGEHGPVRPCQPCQCNNNVDPSASGNCDRLTGRCLKCIHNTAGIYCDQCKAGYFGDPLAPNPADKCRACNCNPMGSEPVGCRSDGTCVCKPGFGGPNCEHGAFSCPACYNQVKIQMDQFMQQLQRMEALISKAQGGDGVVPDTELEGRMQQAEQALQDILRDAQISEGASRSLGLQLAKVRSQENSYQSRLDDLKMTVERVRALGSQYQNRVRDTHRLITQMQLSLAESEASLGNTNIPASDHYVGPNGFKSLAQEATRLAESHVESASNMEQLTRETEDYSKQALSLVRKALHEGVGSGSGSPDGAVVQGLVEKLEKTKSLAQQLTREATQAEIEADRSYQHSLRLLDSVSRLQGVSDQSFQVEEAKRIKQKADSLSSLVTRHMDEFKRTQKNLGNWKEEAQQLLQNGKSGREKSDQLLSRANLAKSRAQEALSMGNATFYEVESILKNLREFDLQVDNRKAEAEEAMKRLSYISQKVSDASDKTQQAERALGSAAADAQRAKNGAGEALEISSEIEQEIGSLNLEANVTADGALAMEKGLASLKSEMREVEGELERKELEFDTNMDAVQMVITEAQKVDTRAKNAGVTIQDTLNTLDGLLHLMDQPLSVDEEGLVLLEQKLSRAKTQINSQLRPMMSELEERARQQRGHLHLLETSIDGILADVKNLENIRDNLPPGCYNTQALEQQ
